Earlier results, collected in paper PMC9321663, “The DevTox Germ Layer Reporter Platform: An Assay Adaptation of the Human Pluripotent Stem Cell Test” (Toxics, 2022).
Where a name gives a salt, the structure may show the parent alone. Read-outs that look alike come from different tables or passages of the source. Starred links: 1 amine or outer side, 2 acyl side, 3 side chain; linkers in the order of their positions; H or OH if unused. Positions of bridges follow the written chain, without caps; N, C: chain ends. Non-standard residues stand in square brackets, D forms with d. Residues, ends and D or L forms follow the SMILES beside them. Chains are numbered I, II in the order given. Actinocin(9to1) = Cc1c2oc3c(C)ccc(C(=O)[*:1])c3nc-2c(C(=O)[*:2])c(N)c1=O; NMeV = CN[C@H](C(=O)O)C(C)C; Sar = CNCC(=O)O

Conditions: developmental toxicant classification, cited from earlier work
[1] = quickPredict comparison chemical set

CC1=C(/C=C/C(C)=C/C=C/C(C)=C\C(=O)O)C(C)(C)CCC1
DT Class. (hPST comparison chemical set): Pos

O=C1NC(=O)C(c2ccccc2)(c2ccccc2)N1
DT Class. [1]: Pos

CCCc1cc(=O)[nH]c(=S)[nH]1
DT Class. [1]: Pos

CC1=C(/C=C/C(C)=C/C=C/C(C)=C/C(=O)O)C(C)(C)CCC1
DT Class. (hPST comparison chemical set): Pos
DT Class. [1]: Pos

CC(O)CO (stereo not drawn) [1,2-Propylene glycol]
DT Class. [1]: Neg

O=c1[nH]c(=O)n([C@H]2C[C@H](O)[C@@H](CO)O2)cc1Br [5-Bromo-2’-deoxyuridine]
DT Class. (hPST comparison chemical set): Pos

O=c1[nH]cc(F)c(=O)[nH]1 [5-Fluorouracil]
DT Class. (hPST comparison chemical set): Pos
DT Class. [1]: Pos

NC(=O)c1ccc(N)nc1 [6-Aminonicotinamide, 6−aminopyridine−3−carboxamide]
DT Class. (hPST comparison chemical set): Pos

Cc1c2oc3c(C)ccc(C(=O)N[C@@H]4C(=O)N[C@H](C(C)C)C(=O)N5CCC[C@H]5C(=O)N(C)CC(=O)N(C)[C@@H](C(C)C)C(=O)O[C@@H]4C)c3nc-2c(C(=O)N[C@@H]2C(=O)N[C@H](C(C)C)C(=O)N3CCC[C@H]3C(=O)N(C)CC(=O)N(C)[C@@H](C(C)C)C(=O)O[C@@H]2C)c(N)c1=O [Actinomycin D] (I: T[dV]P[Sar][NMeV] / II: T[dV]P[Sar][NMeV]; ester I:1-I:C, II:1-II:C; linker I:N-II:N via Actinocin(9to1))
DT Class. (hPST comparison chemical set): Pos

CCCCc1oc2ccccc2c1C(=O)c1cc(I)c(OCCN(CC)CC)c(I)c1 [Amiodarone]
DT Class. [1]: Pos

CC(=O)Oc1ccccc1C(=O)O [Aspirin]
DT Class. (hPST comparison chemical set): Neg
DT Class. [1]: Neg

CC(C)(c1ccc(O)cc1)c1ccc(O)cc1 [Bisphenol A]
DT Class. [1]: Pos

OB(O)O [Boric acid]
DT Class. [1]: Pos

CS(=O)(=O)OCCCCOS(C)(=O)=O [Busulfan]
DT Class. [1]: Pos

CCCCOC(=O)c1ccc(O)cc1 [Butylparaben, 4−Hydroxybenzoic acid butyl ester]
DT Class. [1]: Neg

NC(=O)N1c2ccccc2C=Cc2ccccc21 [Carbamazepine]
DT Class. (hPST comparison chemical set): Pos
DT Class. [1]: Pos

Oc1cc(O)c2c(c1)O[C@H](c1ccc(O)c(O)c1)[C@@H](O)C2 [Cianidanol]
DT Class. (hPST comparison chemical set): Neg

CC1=C2C[C@H]3[C@@H](CC=C4C[C@@H](O)CC[C@@]43C)[C@@H]2CC[C@]12O[C@@H]1C[C@H](C)CN[C@H]1[C@H]2C [Cyclopamine]
DT Class. [1]: Pos

O=P1(N(CCCl)CCCl)NCCCO1 (stereo not drawn) [Cyclophosphamide]
DT Class. [1]: Pos

Nc1ccn([C@@H]2O[C@H](CO)[C@@H](O)[C@@H]2O)c(=O)n1 [Cytarabine]
DT Class. [1]: Pos

Cc1nc(Nc2ncc(C(=O)Nc3c(C)cccc3Cl)s2)cc(N2CCN(CCO)CC2)n1 [Dasatinib]
DT Class. (hPST comparison chemical set): Pos

C[C@@H]1C[C@H]2[C@@H]3CCC4=CC(=O)C=C[C@]4(C)[C@@]3(F)[C@@H](O)C[C@]2(C)[C@@]1(O)C(=O)CO [Dexamethasone]
DT Class. [1]: Pos

CC/C(=C(/CC)c1ccc(O)cc1)c1ccc(O)cc1 [Diethylstilbestrol]
DT Class. (hPST comparison chemical set): Pos
DT Class. [1]: Pos

COC(=O)c1ccccc1C(=O)OC [Dimethyl Phthalate]
DT Class. [1]: Neg

c1cc(-c2cnn3cc(-c4ccc(OCCN5CCCCC5)cc4)cnc23)ccn1 [Dorsomorphin]
DT Class. (hPST comparison chemical set): Pos

COc1cccc2c1C(=O)c1c(O)c3c(c(O)c1C2=O)C[C@@](O)(C(=O)CO)C[C@@H]3O[C@H]1C[C@H](N)[C@H](O)[C@H](C)O1 [Doxorubicin]
DT Class. (hPST comparison chemical set): Pos

COc1ccc2nc([S@@+]([O-])Cc3ncc(C)c(OC)c3C)[nH]c2c1 [Esomeprazole]
DT Class. (hPST comparison chemical set): Neg

NC(=O)NO [Hydroxyurea]
DT Class. [1]: Pos

NNC(=O)c1ccncc1 [Isoniazid]
DT Class. [1]: Neg

O=C(c1ccc(F)cc1)C1CCN(CCn2c(=O)[nH]c3ccccc3c2=O)CC1 [Ketanserin]
DT Class. (hPST comparison chemical set): Neg

CC[C@H](C)C(=O)O[C@H]1C[C@@H](C)C=C2C=C[C@H](C)[C@H](CC[C@@H]3C[C@@H](O)CC(=O)O3)[C@H]21 [Lovastatin]
DT Class. [1]: Pos

CCCCC(CC)COC(=O)c1ccccc1C(=O)O (stereo not drawn) [MEHP]
DT Class. [1]: Pos

CN(Cc1cnc2nc(N)nc(N)c2n1)c1ccc(C(=O)N[C@@H](CCC(=O)O)C(=O)O)cc1 [Methotrexate]
DT Class. [1]: Pos

C[C@](N)(Cc1ccc(O)c(O)c1)C(=O)O [Methyldopa]
DT Class. (hPST comparison chemical set): Neg

CN1CCN2c3ccccc3Cc3ccccc3C2C1 (stereo not drawn) [Mianserin]
DT Class. (hPST comparison chemical set): Pos

O=C(O)c1cccnc1 [Niacin, Nicotinic acid]
DT Class. (hPST comparison chemical set): Neg

CC1=C(/C=C/C(C)=C/C=C/C(C)=C/CO)C(C)(C)CCC1 [Retinol]
DT Class. [1]: Neg

CO[C@H]1/C=C/O[C@@]2(C)Oc3c(C)c(O)c4c(O)c(c(/C=N/N5CCN(C)CC5)c(O)c4c3C2=O)NC(=O)/C(C)=C\C=C\[C@H](C)[C@H](O)[C@@H](C)[C@@H](O)[C@@H](C)[C@H](OC(C)=O)[C@@H]1C [Rifampicin]
DT Class. [1]: Pos

Cc1nc2sccn2c(=O)c1CCN1CCC(=C(c2ccc(F)cc2)c2ccc(F)cc2)CC1 [Ritanserin]
DT Class. (hPST comparison chemical set): Pos

O=C1NS(=O)(=O)c2ccccc21 [Saccharin]
DT Class. (hPST comparison chemical set): Neg
DT Class. [1]: Neg

O=C(O)c1ccccc1O [Salicylic Acid]
DT Class. [1]: Neg

CNC(=O)c1cc(Oc2ccc(NC(=O)Nc3ccc(Cl)c(C(F)(F)F)c3)cc2)ccn1 [Sorafenib]
DT Class. (hPST comparison chemical set): Pos

Cc1cn([C@H]2C=C[C@@H](CO)O2)c(=O)[nH]c1=O [Stavudine]
DT Class. [1]: Pos

CCN(CC)CCNC(=O)c1c(C)[nH]c(/C=C2\C(=O)Nc3ccc(F)cc32)c1C [Sunitinib]
DT Class. (hPST comparison chemical set): Pos

[H]/N=C(/NCCCCC)N/N=C/c1c[nH]c2ccc(OC)cc12 [Tegaserod Maleate]
DT Class. (hPST comparison chemical set): Neg

O=C1CCC(N2C(=O)c3ccccc3C2=O)C(=O)N1 (stereo not drawn) [Thalidomide]
DT Class. (hPST comparison chemical set): Pos
DT Class. [1]: Pos

CCCC(CCC)C(=O)O [Valproic Acid]
DT Class. (hPST comparison chemical set): Pos
DT Class. [1]: Pos

COc1cc2c(Nc3ccc(Br)cc3F)ncnc2cc1OCC1CCN(C)CC1 [Vandetanib]
DT Class. (hPST comparison chemical set): Pos

O=C1Cc2cc(CCN3CCN(c4nsc5ccccc45)CC3)c(Cl)cc2N1 [Ziprasidone]
DT Class. (hPST comparison chemical set): Pos
